For some of these results: For at least one compound, name, drawing or mass did not settle the structure. Some results were stated once for a whole list of compounds, not compound by compound.
How the values were obtained:
[1] = tested on: Wheat (cv. Anza) suspension culture; assay: Single cell production from wheat (cv. Anza) suspension culture; assay type: cell-based; conditions: 25 nM to 1 mM
BY2 cells = assay: Kanamycin selection of BY2 cells after plastid transformation; assay type: cell-based, tobacco; conditions: 100 mg/L
[2] = tested on: JTNT1 tobacco cell suspension cultures; assay: Single cell production, growth and viability of JTNT1 suspension with microtubule inhibitors in 24-well plates, glycerol medium
Text: JTNT1 Tobacco Suspension Cultures. […] Furthermore, Suc stabilizes preformed microtubules, making an examination of the effects of MTIs on preformed microtubules unfeasible. In addition, sucrose increases solution viscosity substantially, and tubulin polymerization is altered at least in part by slowed dimer and polymer diffusion rates. Thus, it was important to have low or no sucrose in medium where the single cell production. Thus, a new JTNT1 line habituated in Glycerol was developed for this study.
Each of the 24 well contained 1 ml of JTNT1 suspension. The 24-well plates were kept on an Innova 4900 Multi Environmental Shaker with special clamps and harnesses to allow stacking of plates up to 6 plates high. The plates were rotated at a speed of 130 rpm and 25° C. in dark.
Single Cell Production. Each compound was dissolved in dimethyl sulfoxide (DMSO) to provide 0.5 Molar stock solutions. One ml of JTNT1 suspension (1 ml PCV/20 ml tobacco media) was added to each well of the 24 well plates. To each well an individual chemical was added to achieve the desired concentrations (at 1 μM, 3 μM, and 10 μM). The cultures were allowed to grow for 7 days on the Innova Shaker. Each day turbidity measurements was taken on each well using a SpectraMax M2^e by Molecular devices (set at 600 absorbance, with 5 readings taken per well). On day 7, cells were observed using the Leica 5000 inverted confocal microscope for formation of single cells and cell viability.

Row | SMILES | time from which single cells were released after culture initiation [1] | effect on control non treated cells (BY2 cells) | concentration necessary to produce single cells, lower end of range [2] | concentration necessary to produce single cells, upper end of range [2]
1 | CCOC(=O)COc1nn(-c2ccccc2)c(-c2ccccc2)c1Cl [DAS-PMTI-1] | ≥ 3 days |  |  | 
2 | NC[C@H]1O[C@H](O[C@H]2[C@H](O)[C@@H](O[C@H]3O[C@H](CO)[C@@H](O)[C@H](N)[C@H]3O)[C@H](N)C[C@@H]2N)[C@H](O)[C@@H](O)[C@@H]1O [Kanamycin] |  | killed |  | 
3 | C#CC(C)(C)NC(=O)c1cccc(Cl)c1 [N-(1,1-dimethylpropynyl)3-chlorobenzamide] |  |  | ≥ 10 nM | ≤ 100 µM
4 | CCCN(CCC)c1c([N+](=O)[O-])cc(C(F)(F)F)cc1[N+](=O)[O-] [Trifluralin] | ≥ 3 days |  |  | 
5 | C#CC(C)(C)NC(=O)c1cc(Cl)cc(Cl)c1 [propyzamide] |  |  | ≥ 10 nM | ≤ 100 µM

From patent publication US8206983B2, “In vitro methods for the induction and maintenance of plant cell lines as single suspension cells with intact cell walls” (Dow AgroSciences, LLC., priority 2006, dated 2012)
